These results are taken from PubChem BioAssay AID2685 (National Center for Advancing Translational Sciences (NCATS), 2010).

The structures appear in SMILES notation. The list shows a part of the results. Shown are side measurements of this screen, not its main read-out; they come without a call. Most of these compounds were active or inconclusive in the main read-out, so they are no random draw. Words in brackets tell the shape of the fitted curve; partial curves, single points and poor fits give uncertain potencies.

This test is described as follows: qHTS Assay for Lipid Storage Modulators in Drosophila S3 Cells.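 For cell number change: cells counted by Cell Tracker Red CMTPX staining in the red channel.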 As to conditions: BODIPY lipid droplet fluorescence, 18-24 h; for cell number change: measured here: cell count max response, cells fed with added oleic acid. The gist of the method: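 Drosophila S3 cells got compounds at several concentrations plus oleic acid (400 uM solution). Laser-scanning cytometry with 488 nm excitation read lipid droplets at 500-530 nm and cells at 575-640 nm. Percent activity was relative to 20 uM Triacsin C.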

The mark [1] stands for this setting: measured here: lipid fluorescence (Fed channel) AC50, cells fed with added oleic acid.
Setting [2] is: measured here: cell number channel AC50, cells fed with added oleic acid.

For orientation: AC50 means the concentration giving half of the maximal activity seen. Take `CC(C)[C@H](NC(=O)c1ccccc1F)C(=O)NCc1ccc(S(N)(=O)=O)cc1`: the cell number change was -14.2%. The AC50 under setting [1] is 0.00461 µM [falling, full curve, poor fit]. Take `Cc1c(C(=O)OCC(=O)NCc2ccc3c(c2)OCO3)cccc1[N+](=O)[O-]`: the AC50 under setting [1] was 23.1 µM [falling, single point]. Consider `C/C(N)=C(/C#N)C(=O)COC(=O)C1CCC(C(C)(C)C)CC1` (centres undefined), for which the cell number change was -54%. In addition, the AC50 under setting [2] is 0.206 µM [falling, full curve, poor fit]. Moreover, the half-maximal activity concentration (AC50) under setting [1] is 2.06 µM [falling, partial curve]. In the case of `COc1cc(C(=O)Nc2nccs2)c(Br)c(OC)c1OC`, the AC50 is 3.26 µM [rising, single point] under setting [2] and 3.66 µM [rising, partial curve] under setting [1]. Turning to `O=C(O)c1ccccc1NC(=O)C1CCCO1` (centres undefined), the concentration at half-maximal activity (AC50) under setting [1] is 0.517 µM [falling, full curve, poor fit].

Turning to `COc1ccc(-n2c(Cc3cc(=O)[nH]c(=O)[nH]3)nnc2SCC(=O)N2CCC(C)CC2)cc1`, the cell number change was 0.659%. Further, under setting [1], the AC50 was 2.06 µM [falling, partial curve]. Take `CCOC(=O)c1cnc(Nc2nc3ccccc3o2)nc1C`: the cell number change was 49.2%. In addition, under setting [2], the AC50 was 16.4 µM [rising, single point]. As for `Fc1cccc(Cl)c1Cn1nnc(-c2ccc3c(c2)OCO3)n1`, the cell number change is -15.5%. Further, the AC50 under setting [1] is 0.00461 µM [rising, full curve, poor fit]. For the compound `COc1ccc(NC(=O)C2CCCCN2N)cc1OCC(C)C` (centres undefined), the cell number change was 35.7%. For the same compound, the half-maximal activity concentration (AC50) under setting [2] was 13 µM [rising, single point]. `CCC(C)NC(=O)C1CCN(S(=O)(=O)c2ccc(OC)cc2)CC1` (centres undefined): the cell number change is -33.4%. The AC50 under setting [2] was 29.1 µM [falling, partial curve, poor fit].

For `O=C(NCc1cn2ccsc2n1)c1cccc(C(F)(F)F)c1`, the cell number change was -33.9%. The AC50 under setting [2] was 29.1 µM [falling, single point]. As for `C/C(=N\NC(=O)CCc1ccc(S(=O)(=O)N2CCOCC2)cc1)c1ccc(Br)cc1`, the cell number change is -36.3%. `O=C(COC(=O)COc1ccccc1)Nc1ncc([N+](=O)[O-])s1`: the cell number change stood at 9.59%. The AC50 under setting [1] is 0.58 µM [rising, single point].

Regarding `COc1ccccc1Nc1nnc(SCc2cc(=O)n3cc(C)ccc3n2)s1`, the cell number change came to 4.82%. Further, under setting [1], the concentration at half-maximal activity (AC50) was 0.82 µM [rising, partial curve, poor fit].

For `COCC(C)NC(=S)N1CCN(c2ccccc2Cl)CC1` (centres undefined), the cell number change came out at 87.4%. For the compound `Cc1ccc(S(=O)(=O)N2CCCC2CNC(=O)C(=O)NC2CC2)cc1` (centres undefined), the cell number change was -6.34%. The AC50 under setting [2] is 0.731 µM [falling, single point]. For `Cc1cccc2c1CC(C)(C)N=C2C1=C(O)CCCC1=O`, the cell number change stood at 32.8%. The half-maximal activity concentration (AC50) under setting [2] is 32.6 µM [rising, partial curve, poor fit]. Regarding `COCCN(C(=O)CCC(=O)Nc1cc(C)on1)C(C(=O)NC1CCCC1)c1ccc(C(C)C)cc1` (centres undefined), the cell number change is -3.95%. Moreover, the AC50 under setting [1] was 6.31 µM [falling, single point]. Regarding `CCc1nn2cc(C(=O)c3cc(Cl)ccc3O)cnc2c1-c1ccc(F)cc1`, the cell number change was -33.1%. Besides, under setting [2], the AC50 was 29.1 µM [falling, single point]. The concentration at half-maximal activity (AC50) under setting [1] is 29.1 µM [falling, single point].

As for `CCCCCCNCCn1cnc2c(N)ncnc21`, the cell number change stood at 27%. In addition, the AC50 under setting [1] was 23.1 µM [rising, partial curve]. Turning to `O=C(NCCC1=CCCCC1)C1CCC(=O)N(Cc2ccc(Cl)cc2)C1` (centres undefined), the cell number change is -19%. For the same compound, the AC50 under setting [1] is 32.6 µM [falling, partial curve, poor fit]. Take `Cn1c(C(=O)N2CCN(c3ccccc3)CC2)cc2cc(Cl)ccc21`: the cell number change was -13.6%. In addition, the AC50 under setting [1] is 29.1 µM [falling, single point]. In the case of `CCOc1ccccc1NC(=O)CSc1nc(=O)n(CCCN2CCOCC2)c2c1CCCC2`, the cell number change was 25%. Moreover, the AC50 under setting [2] is 7.31 µM [rising, partial curve, poor fit]. For `O=c1c2ccccc2nc(-c2ccco2)n1-c1nc2ccccc2s1`, the cell number change is 11%. Moreover, the AC50 under setting [1] is 2.31 µM [rising, full curve, poor fit]. Take `O=C(Nc1ccc2c(c1)OCO2)[C@@H]1CCCN1S(=O)(=O)c1cccc2cccnc12`: under setting [1], the concentration at half-maximal activity (AC50) was 20.6 µM [falling, single point]. For the compound `Cc1cc(C)n(-c2nnc(N3CCN(c4ccccc4)CC3)nn2)n1`, the cell number change is -33.8%. The concentration at half-maximal activity (AC50) under setting [2] was 1.46 µM [falling, full curve, poor fit]. The AC50 under setting [1] is 0.184 µM [falling, full curve, poor fit]. Consider `Cc1cc(NCc2cccnc2)nc(N)n1`, for which the cell number change turned out to be 5.56%. The same measure, in the same setting: then `O=C(CCC(=O)c1ccc(Br)cc1)Nc1ccc(F)cc1`, with 4.46%. With `Cc1ccccc1CSCC(=O)c1c(N)n(CC(C)C)c(=O)n(C)c1=O`, the cell number change was -2.01%. For the same compound, the AC50 under setting [2] is 0.58 µM [rising, full curve]. Take `CCc1ccccc1N(CC(=O)N1CCN(c2ccccc2F)CC1)S(C)(=O)=O`: the cell number change is -4.87%. Under setting [1], the AC50 is 16.4 µM [rising, single point].

Take `Cc1ccc(S(=O)(=O)Cn2nnnc2C(c2ccc(F)cc2)N2CCCCC2)cc1` (centres undefined): the cell number change is -2.63%. Also, the AC50 under setting [1] was 0.164 µM [rising, full curve, poor fit]. Consider `COc1ccc(N(C(=O)c2cc3ccccc3oc2=O)C2C=CS(=O)(=O)C2)cc1` (centres undefined), for which the cell number change is 8.2%. Also, the concentration at half-maximal activity (AC50) under setting [1] is 0.461 µM [falling, partial curve, poor fit].

On to `COc1ccc(CNC(=O)C2CCCN2CCc2ccccc2)cc1OC` (centres undefined), for which the AC50 is, setting by setting: under setting [2], 0.411 µM [falling, single point]; under setting [1], 29.1 µM [falling, single point]. Take `NC(=O)c1ccc(SCC(=O)OCC(=O)N2CCN(C(=O)c3ccco3)CC2)c([N+](=O)[O-])c1`: the cell number change was 2.57%. Moreover, the AC50 under setting [2] was 0.411 µM [falling, full curve, poor fit]. The AC50 under setting [1] is 0.366 µM [falling, full curve]. For `COC(=O)c1ccc(C2C(C#N)=C(N)Oc3cc(O)ccc32)cc1` (centres undefined), the cell number change is -8.99%. Further, under setting [1], the AC50 is 29.1 µM [rising, single point]. `O=C(CCc1nnc2ccc(NCc3ccco3)nn12)Nc1ccccn1`: the cell number change was -17.7%. Also, the AC50 under setting [2] was 2.59 µM [falling, single point]. The AC50 under setting [1] is 0.184 µM [falling, full curve].

Take `CC1CCCN(Cc2cnc(Cl)s2)C1` (centres undefined): the cell number change was -17.3%. In addition, the AC50 under setting [1] was 1.16 µM [falling, full curve]. Take `Cc1ccc(/C=C/C(=O)OCC(=O)NCCN2C(=O)CSC2=O)o1`: under setting [1], the AC50 is 29.1 µM [rising, partial curve, poor fit]. In the case of `COc1cccc(-c2cc(C(=O)Nc3ccc([N+](=O)[O-])cn3)c3ccccc3n2)c1`, the cell number change is 15.9%.

Consider `O=C(CNC(=O)c1ccco1)N=Nc1c(O)n(CCc2ccccc2)c2ccccc12`, for which the cell number change was found to be 0.213%.

For `CCCC(=O)Nc1cccc(Oc2nc(C)cc(C)c2C#N)c1`, the cell number change was -5.44%.

Take `Cc1cc(-c2nn(-c3ccccc3F)cc2CN2CCCC(C(N)=O)C2)c(C)s1` (centres undefined): the cell number change came out at 12%. Turning to `COc1ccc2c(c1)CCc1sc(NC(=O)c3ccco3)nc1-2`, the cell number change was -11.2%. Also, the AC50 under setting [2] is 3.26 µM [rising, single point]. The AC50 under setting [1] is 6.51 µM [rising, single point]. As for `O=C(NC1CCCCC1)C1CCN(c2nnnn2-c2ccccc2)CC1`, the cell number change was -2.1%. Moreover, under setting [1], the AC50 is 0.00517 µM [rising, full curve, poor fit]. Consider `CN(Cc1cccnc1)C(=O)c1cc(COc2ccc3c(c2)CCCC3)on1`, for which the cell number change is -50%. Under setting [2], the AC50 was 29.1 µM [falling, single point]. Also, the AC50 under setting [1] was 29.1 µM [falling, single point]. With `Cc1cccc(Nc2nc(Cl)ncc2F)c1C`, the cell number change worked out at 28.5%. `CCCCn1c(O)c(N=NC(=O)c2ccco2)c2ccccc21`: the cell number change was 10.4%. For the same compound, the AC50 under setting [2] was 0.731 µM [rising, full curve, poor fit]. On to `CC1CCCCN1C(=O)Cn1c(=O)n(C2CCCCC2)c(=O)c2ccccc21` (centres undefined), for which the cell number change amounted to 6.8%. Under setting [1], the half-maximal activity concentration (AC50) is 29.1 µM [rising, single point]. As to `O=C(CC(Cc1ccccc1)C(=O)O)Nc1ccc(F)cc1` (centres undefined), the cell number change was 4.46%. The AC50 under setting [1] was 6.51 µM [falling, single point].

In the case of `O=C(CSc1nc2[nH]ncc2c(=O)[nH]1)NCc1ccccc1Cl`, the cell number change was -2.49%. Take `CC(=O)Nc1ccc(S(=O)(=O)N(C)CC(=O)OCC(=O)NNC(=O)c2ccccc2F)cc1`: the cell number change was -16.5%. Besides, the AC50 under setting [1] was 1.3 µM [falling, full curve, poor fit]. On to `C#CCSc1nc(-c2ccccc2)cc(C(F)(F)F)c1C#N`, for which, under setting [2], the AC50 is 0.206 µM [rising, full curve]. `NC(=O)c1ccc[n+](CC(=O)c2cccc([N+](=O)[O-])c2)c1`: the cell number change is -2.11%. The AC50 under setting [1] was 0.00461 µM [falling, full curve, poor fit]. Consider `CCc1c(C(=O)Nc2ccc(C)c(C)c2)[nH]c(C)c1C(C)=O`, for which the cell number change turned out to be 20.8%. Further, the AC50 under setting [1] was 29.1 µM [rising, single point].

For `Cc1ccc(N(CC(=O)NCCSc2nc3ccccc3s2)S(=O)(=O)c2ccccc2)c(C)c1`, the cell number change is -12.7%. The AC50 under setting [1] is 13 µM [falling, single point].

As for `N#Cc1ccccc1CSc1nc2ccsc2c(=O)n1Cc1ccccn1`, the cell number change came to 1.27%. The AC50 under setting [1] is 0.651 µM [rising, partial curve]. As to `COc1cc(/C=C(\C#N)c2nc3ccccc3n2C)cc(OC)c1O`, the cell number change is -12.1%. The AC50 under setting [2] was 0.58 µM [falling, full curve, poor fit]. In the case of `COC(C(=O)NNS(=O)(=O)c1ccc([N+](=O)[O-])cc1)c1ccccc1` (centres undefined), the cell number change was -3.85%. Also, the AC50 under setting [1] was 29.1 µM [rising, single point]. As to `CCOC(=O)C1CCN(CCC(=O)Nc2ccc(C)c(C)c2)CC1`, the cell number change worked out at 46.5%. For `CC(C)NC(=O)NC(=O)CSc1ccc(S(=O)(=O)N2CCOCC2)cn1`, the cell number change is 50%. Moreover, under setting [2], the half-maximal activity concentration (AC50) was 16.4 µM [rising, single point]. Take `Cn1cc(C(=O)N/N=C/c2ccc([N+](=O)[O-])cc2)c2ccccc21`: the cell number change is 61.8%. Under setting [2], the AC50 was 4.11 µM [rising, partial curve, poor fit]. Also, the AC50 under setting [1] was 1.46 µM [rising, full curve].
